These results are taken from article PMC7819943, “Rice protein-binding microarrays: a tool to detect cis-acting elements near promoter regions in rice”.

Some of the results follow.

The target in the assay is T1, OsSMF1 (Oryza sativa, UniProt Q6ZLB0 1-436).
T1 sequence: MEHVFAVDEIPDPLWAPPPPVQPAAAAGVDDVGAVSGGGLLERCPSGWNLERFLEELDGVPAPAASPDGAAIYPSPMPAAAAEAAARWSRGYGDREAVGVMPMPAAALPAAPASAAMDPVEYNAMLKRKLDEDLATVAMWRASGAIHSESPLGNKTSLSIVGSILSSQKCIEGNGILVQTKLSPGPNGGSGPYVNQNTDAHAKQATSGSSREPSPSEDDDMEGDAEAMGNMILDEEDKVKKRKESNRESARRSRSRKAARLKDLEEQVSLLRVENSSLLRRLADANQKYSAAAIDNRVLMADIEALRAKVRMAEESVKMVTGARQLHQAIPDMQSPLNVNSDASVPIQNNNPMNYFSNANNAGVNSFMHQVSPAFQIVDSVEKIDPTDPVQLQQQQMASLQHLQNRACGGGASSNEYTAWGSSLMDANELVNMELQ
Nature of the assay: protein-binding microarray (RPBM); PBS, 2% BSA, 51.3 ng/ul salmon testes DNA, 50 uM zinc acetate, 200 nM TF, 25 C, 1 h; high values mean tight binding. To be noted: protein: recombinant; tags: N-terminal polyhistidine and DsRed monomer fusion (pET32a); chain copies: 2; label: CyDye5-dUTP incorporated in the synthesized complementary strand; 3' TTTTT single-stranded linker to array surface; dsDNA, one strand shown. The essentials: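 Using Ni–NTA, transcription factors fused N-terminally to polyhistidine and DsRed were purified after expression in E. coli BL21-CodonPlus. These were incubated at 200 nM with a blocked, double-stranded custom Agilent array for 1 h at 25 °C in a buffer containing 50 µM zinc acetate, and the array was washed. The binding signal is per-feature fluorescence intensity (arbitrary units) on an Axon 4000B scanner.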
Consider “CATATCCTATCATTAGGACATGACTCGGTCTTGTGTCGCTCGGAGTCACCTAGTGCAG”, for which the binding signal was 3860 fluorescence intensity (a.u.).
Turning to “CTCACAGTGGATAGTAACAATTGATCCCGGTATCTATTTGCGGAGTCACCTAGTGCAG”, the binding signal is 5110 fluorescence intensity (a.u.).
Take “GGGTCTGTTTGGTTCACAGCCCAAACCAGCCATCAAGTTGCGGAGTCACCTAGTGCAG”: the binding signal was 3820 fluorescence intensity (a.u.).
The result for “CTTAATCACAATGTCAATCAATGTCCTGTGGCAAAGTGCCCGGAGTCACCTAGTGCAG” reads 3270 fluorescence intensity (a.u.).
For the sequence “ACTCTTCTGTTTTCCTGCGCTGTGTAATGTCAAAATTCTCCGGAGTCACCTAGTGCAG”, the binding signal is 4080 fluorescence intensity (a.u.).
The result for “GGTGGTGCTGGACCTCGAGTTCGGAGATCTCATGCGGCCCCGGAGTCACCTAGTGCAG” reads 27500 fluorescence intensity (a.u.); that for “TGCATCACTCTATTGGTTGCAATGTGTCCTTTATACCAATCGGAGTCACCTAGTGCAG”, 29300 fluorescence intensity (a.u.).
The result for “TGCCTGCGTAAAATAATACACGGCGTGGCGGCGCGCCGCGCGGAGTCACCTAGTGCAG” reads 3280 fluorescence intensity (a.u.); that for “CTCCTTGGCCCGTTTGGTCTCTGTGTGGGTTGGTAAAGACCGGAGTCACCTAGTGCAG”, 3330 fluorescence intensity (a.u.); that for “AATCGAACAGGCTGAGGTATTCCACGATCGCACACTTACCCGGAGTCACCTAGTGCAG”, 3430 fluorescence intensity (a.u.).
To “TTCTAGGTCATGAAAGAATCCAACGTGGCCGTATTATCACCGGAGTCACCTAGTGCAG” belongs 7840 fluorescence intensity (a.u.).
Take “TCACTCCCCAAGAAAGCACAAAGCCACATCAACCTCACCTCGGAGTCACCTAGTGCAG”: the binding signal is 3300 fluorescence intensity (a.u.).
Consider “GCATTGAGGCCCATCTAAAAGAATATGTGGCCTTGTTTGGCGGAGTCACCTAGTGCAG”, for which the binding signal is 3230 fluorescence intensity (a.u.).
The result for “GATGCTTTCTTAAGATTTAGATATTTCTAGTCTTATGCTTCGGAGTCACCTAGTGCAG” reads 3470 fluorescence intensity (a.u.); that for “GGCAGATATTAAGAACGCAATGACACGGCTATTTATAGCACGGAGTCACCTAGTGCAG”, 3560 fluorescence intensity (a.u.).
The result for “TCCCAAACCCCGCGCCGCCTCTTACCGCTTCGCGTCAGCTCGGAGTCACCTAGTGCAG” reads 63900 fluorescence intensity (a.u.); that for “AGCTCGTGACGTTAATCTCCGTATAACCAAGCCATGTTGTCGGAGTCACCTAGTGCAG”, 6620 fluorescence intensity (a.u.); that for “GCGCGCGCCATCTCGCTGATTCGACCGCGAAATTTTCAGTCGGAGTCACCTAGTGCAG”, 3740 fluorescence intensity (a.u.).
The result for “GTTATCGTCATTACGTCAATACGTGTTTTCGAAAATAATTCGGAGTCACCTAGTGCAG” reads 4860 fluorescence intensity (a.u.); that for “AAAAGGGCATCGATACCATCTCAATAATGCAGTATGACAACGGAGTCACCTAGTGCAG”, 5520 fluorescence intensity (a.u.); that for “GCCAACTGGCCGCTCCGCCCCGCGTCGTGCCCTCTCCGGCCGGAGTCACCTAGTGCAG”, 16900 fluorescence intensity (a.u.).
Turning to “TCTTCCAAGTAGGAAAATATGCTGACATAGATCTCTTGTACGGAGTCACCTAGTGCAG”, the binding signal is 3660 fluorescence intensity (a.u.).
The result for “ATCTCTATCCACCCTCTCTCGTTTACTCTCTCTCTTTCCCCGGAGTCACCTAGTGCAG” reads 3360 fluorescence intensity (a.u.).
